Values from PubChem BioAssay AID1224829 (NIAID, 2016).
Screen: 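Genes needed for LPS-driven NF-kappaB p65 nuclear entry in mouse macrophages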 (follow-up of hits). Cells: mouse RAW264.7 G9 macrophage reporter cells. Reagent: single siRNA against mouse genes, 100 nM. Duration: 2 days of siRNA knock-down, then 40 min of LPS before fixing. Treatment: LPS (Salmonella minnesota R595) at 10 ng/ml. Detection: 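High-content images after 40 min LPS exposure; GFP-p65 nucleus to surrounding ring signal ratio, normalised to plate median and non-targeting control wells, expressed as z-score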. Direction: p65 translocation z-score and gene median z-score, per vendor: higher = more nuclear NF-kappaB p65 after LPS. Hit rule: 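An siRNA is called active when the mean z-score of its two replicates is above 2 or below -2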. Meaning of the calls: active = changed p65 translocation (either direction); inactive = no clear change.
The deposit covers about 3,800 reagents; below is an unselected part. 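Calls cover raised and lowered translocation; gene median uses one vendor's three siRNAs; qiagen siRNAs acted more weakly than ambion siRNAs.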 Entries without a mark were called inactive. The numbers tell different reagents against one gene apart.

| gene | siRNA no. | siRNA vendor or control pool | p65 translocation z-score, replicate mean | p65 translocation z-score, replicate 1 | p65 translocation z-score, replicate 2 | gene median z-score, per vendor |
| --- | --- | --- | --- | --- | --- | --- |
| Map1a | 1 | qiagen single siRNA | 0.991 | 1.25 | 0.728 | -1.36 |
| Map1a | 2 | qiagen single siRNA | -1.99 | -2.47 | -1.51 | -1.36 |
| Map1a | 3 | qiagen single siRNA | -2.67 (active) | -1.2 | -4.14 | -1.36 |
| Mesp2 | 1 | ambion single siRNA | -2.11 (active) | -2.17 | -2.04 | -2.1 |
| Mesp2 | 2 | ambion single siRNA | -1.54 | -1.04 | -2.04 | -2.1 |
| Mesp2 | 3 | ambion single siRNA | -2.26 (active) | -2.36 | -2.17 | -2.1 |
| Mesp2 | 4 | qiagen single siRNA | 0.0782 | -1.58 | 1.74 | -1.64 |
| Mesp2 | 5 | qiagen single siRNA | – | – | – | -1.64 |
| Mesp2 | 6 | qiagen single siRNA | -2.48 (active) | -3.27 | -1.69 | -1.64 |
| Nfatc3 | 1 | ambion single siRNA | 1.5 | 1.29 | 1.72 | -2.17 |
| Nfatc3 | 2 | ambion single siRNA | -2.36 (active) | -2.55 | -2.17 | -2.17 |
| Nfatc3 | 3 | ambion single siRNA | -5.1 (active) | -5.1 | – | -2.17 |
| Nfatc3 | 4 | qiagen single siRNA | 1.78 | 0.607 | 2.96 | 0.038 |
| Nfatc3 | 5 | qiagen single siRNA | -0.976 | -2.02 | 0.0671 | 0.038 |
| Nfatc3 | 6 | qiagen single siRNA | -2.03 (active) | 0.00893 | -4.07 | 0.038 |
| Cyp2c65 | 1 | ambion single siRNA | -0.795 | 1.14 | -2.73 | -1.88 |
| Cyp2c65 | 2 | ambion single siRNA | -0.353 | 0.324 | -1.03 | -1.88 |
| Cyp2c65 | 3 | ambion single siRNA | -5.01 (active) | -4.6 | -5.42 | -1.88 |
| Cyp2c65 | 4 | qiagen single siRNA | 0.622 | -0.392 | 1.64 | 1.64 |
| Cyp2c65 | 5 | qiagen single siRNA | 3.31 (active) | 2.3 | 4.32 | 1.64 |
| Cyp2c65 | 6 | qiagen single siRNA | 0.707 | 0.707 | – | 1.64 |
